The text below walks through data of publication PMC7290415, “Functional Consequences of the Variable Stoichiometry of the Kv1.3-KCNE4 Complex” (Cells, 2020).

Amino acid sequences for entries named in this document (tags omitted).
UniProt P15384: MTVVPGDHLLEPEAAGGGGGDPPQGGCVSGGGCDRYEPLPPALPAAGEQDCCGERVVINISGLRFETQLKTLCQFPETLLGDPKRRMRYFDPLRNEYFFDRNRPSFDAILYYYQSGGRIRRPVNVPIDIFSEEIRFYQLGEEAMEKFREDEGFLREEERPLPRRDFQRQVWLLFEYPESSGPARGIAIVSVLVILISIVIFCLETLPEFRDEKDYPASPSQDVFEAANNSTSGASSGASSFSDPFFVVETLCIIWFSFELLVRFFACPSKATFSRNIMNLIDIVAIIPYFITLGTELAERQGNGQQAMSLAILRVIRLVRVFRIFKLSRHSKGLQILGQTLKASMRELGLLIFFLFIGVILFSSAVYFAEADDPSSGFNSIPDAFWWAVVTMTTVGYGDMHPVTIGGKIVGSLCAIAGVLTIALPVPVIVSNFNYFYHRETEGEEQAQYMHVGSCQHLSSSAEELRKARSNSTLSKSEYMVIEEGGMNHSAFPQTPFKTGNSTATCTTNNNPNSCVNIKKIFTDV

These are yes or no findings as the source states them, for the method shown. In cells and extracts the contact can be indirect. Some entries that bind do so weakly or less than the wild type. Where a sequence is shown, tags or fusion partners need not be part of it.

The target of one test is T1, KCNE4-CFP (UniProt Q9WTW3).
T1 sequence: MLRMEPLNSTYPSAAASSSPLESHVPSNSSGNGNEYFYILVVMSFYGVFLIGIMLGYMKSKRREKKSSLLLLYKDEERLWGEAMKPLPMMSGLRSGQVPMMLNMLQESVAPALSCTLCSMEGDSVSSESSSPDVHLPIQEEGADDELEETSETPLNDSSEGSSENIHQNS
Nature of the test: co-IP; HEK-293 cells cotransfected; lysate in 150 mM NaCl, 50 mM HEPES, 1% Triton X-100, pH 7.4; KCNE-CFP precipitated with anti-GFP antibody cross-linked to protein A-Sepharose, 2-3 h at room temperature; blotted against Kv1.3 (anti-Kv1.3) and KCNE (anti-GFP).

Test [1] addresses T2, hKCNE2-HA introduced into pECFP-N1 (human) (UniProt Q9Y6J6).
T2 sequence: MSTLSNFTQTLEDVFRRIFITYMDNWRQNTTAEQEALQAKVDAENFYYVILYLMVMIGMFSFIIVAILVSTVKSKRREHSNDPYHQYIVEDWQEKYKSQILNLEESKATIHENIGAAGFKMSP
Described as above.

For “rKv1.3, externally tagged with HA between S3 and S4 (from UniProt P15384 1-525)”, the results for the binding result (with KCNE4-CFP; in test [1]) were “binds” and “no binding”, respectively.
